{"source": "patent US20130225629A1", "about": "“TARGETING PI3K/MTOR SIGNALLING AND NEUTROPHIL RECRUITMENT FOR TREATMENT OF ENTERITIS” (THE UNIVERSITY OF NORTH CAROLINA AT CHAPEL HILL, priority 2012, published 2013)", "key": {"C. jejuni [1]": {"test_system": "C. jejuni", "assay": "FISH for C. jejuni in colon", "type": "in vivo", "conditions": "rapamycin-treated mice", "protocol": "Cy3-tagged 5′[…]3′ (SEQ ID NO: 1; Poppert et al., 2008) was used to probe the presence of C. jejuni. Deparaffinized, formalin-fixed 5 μm thick sections were incubated for 15 minutes in lysozyme (300,000 Units/ml lysozyme; Sigma-Aldrich, St. Louis, Mo., United States of America) buffer (25 mM Tris pH 7.5, 10 mM EDTA, 585 mM sucrose, and 0.3 mg/ml sodium taurocholate) at room temperature and hybridized overnight at 46° C. in hybridization chambers with the oligonucleotide probe (final concentration of 5 ng/μl in a solution of 30 percent formamide, 0.9 M sodium chloride, 20 mM Tris pH 7.5, and 0.01% sodium dodecyl sulfate). Tissue sections were washed for 20 minutes at 48° C. in washing buffer (0.9 M sodium chloride, 20 mM Tris pH 7.5) and once in distilled water for 10 seconds, dried at 46° C., mounted with DAPI mount media, and imaged using a Zeiss (Carl Zeiss, Thornwood, N.Y., United States of America) LSM710 Spectral Confocal Laser Scanning Microscope system with ZEN 2008 software. Acquired images were analyzed using BioimageXD. (Kankaanpaa et al., 2006). […]\nCy3-tagged 5′[…]3′ (SEQ ID NO: 1) was used to probe the presence of C. jejuni in the intestinal tissue sections as previously described (Sun et al., 2012). […] Acquired images were analyzed using BioimageXD (Kankaanpaa et al., 2006)."}, "C. jejuni [2]": {"test_system": "C. jejuni", "type": "in vivo", "conditions": "rapamycin treatment vs untreated infected mice", "excerpt": "All animal protocols were approved by the Institutional Animal Care and Use Committee of the University of North Carolina at Chapel Hill (Chapel Hill, N.C., United States of America). Germ-free 8 to 12 week old II10^−/−; NF-κBEGFP (129/SvEv; C57BL/6 mixed background) mice were transferred from germ-free isolators and immediately gavaged with 10^9 C. jejuni cfu/mouse (strain 81-176 (Korlath et al., 1985)). Mice were then housed under Specific Pathogen-Free (SPF) conditions and sacrificed at 5 or 12 days. Germ-free II10^−/−; NF-κB^EGFP mice were also gavaged with 10^7 Salmonella typhimurium (S. typhimurium strain CA32) cfu/mouse for 2 days or 10^7 Escherichia coli (E. coli strain NC 101) cfu/mouse for 12 days. […] Intestinal inflammation was scored by evaluating the degree of lamina propria immune cell infiltration, goblet cell depletion, architectural distortion, as well as crypt hyperplasia, ulceration, and abscesses using a score from 0-4. […] Cecal and colonic inflammation induced by S. typhimurium was evaluated using a score from 0-13 as described. […]\nMLN and spleen were aseptically resected. […] C. jejuni colonies were counted and data presented as colony forming unit (cfu)/g tissue."}, "C. jejuni in splenocytes": {"test_system": "C. jejuni in splenocytes", "assay": "C jejuni killing assay using primary splenocytes", "type": "cell-based, mice", "conditions": "rapamycin 100 nmol/L, 4 hr, II10−/− splenocytes, vs untreated cells"}, "neutrophils (MPO)": {"test_system": "neutrophils (MPO)", "assay": "Myeloperoxidase (MPO) immunohistochemistry of colon, neutrophil infiltration", "type": "in vivo", "conditions": "rapamycin, infected II10−/−; NF-κBEGFP mice", "protocol": "Deparaffinized colon sections were treated with 3% H2O2 for 10 minutes to quench endogenous peroxidases. Antigen retrieval was performed using microwave heating for 10 min in 10 mM citrate buffer pH 6.0. Sections were blocked in 5% goat serum TBS-T for 1 hour. The slides were incubated overnight at 4° C. with an anti-MPO antibody (1:400) (Thermo Scientific, Hampton, N.H., United States of America). Secondary biotinylated antibody was diluted at 1:1000 with the VECTASTAIN® ABC Elite Kit (Vector Laboratories, Inc., Burlingame, Calif., United States of America). Visualization was performed using DAB chromogen (Dako, Inc., Carpinteria, Calif., United States of America). Finally, sections were counterstained with hematoxylin for 5 seconds. Sections were imaged at the OLYMPUS® microscope using DP 71 camera and DP Controller 3.1.1.276 (Olympus, Center Valley, Pa., United States of America).\nNeutrophils in intestinal tissue were detected using anti-myeloperoxidase (MPO) IHC as described previously (Sun et al., 2012). Briefly, intestinal tissue sections were deparaffinized, blocked and incubated with an anti-MPO antibody (1:400; Thermo Scientific, Hampton, N.H., United States of America) overnight. […]"}, "C. jejuni [3]": {"test_system": "C. jejuni", "assay": "Growth of rapamycin-treated C. jejuni on Campylobacter selective plates", "conditions": "up to 1 mM rapamycin in PBS"}}, "note": "At least one structure is not confirmed: it was looked up by name or label, or the drawing left a doubt."}
{"smiles": "CO[C@H]1C[C@@H]2CC[C@@H](C)[C@@](O)(O2)C(=O)C(=O)N2CCCC[C@H]2C(=O)O[C@H]([C@H](C)C[C@@H]2CC[C@@H](O)[C@H](OC)C2)CC(=O)[C@H](C)/C=C(\\C)[C@@H](O)[C@@H](OC)C(=O)[C@H](C)C[C@H](C)/C=C/C=C/C=C/1C", "note": "[rapamycin]", "values": [{"measurement": "C. jejuni presence in colon (FISH, 3-D visualization)", "setting": "C. jejuni [1]; fresh-fixed colonic tissue", "value": "strongly reduced"}, {"measurement": "C. jejuni DNA in colon (FISH, confocal)", "setting": "C. jejuni [1]; tissue sections", "value": "barely detectable"}, {"measurement": "C. jejuni presence in the MLN", "setting": "C. jejuni [2]", "value": "strongly reduced"}, {"measurement": "C. jejuni presence in the spleen", "setting": "C. jejuni [2]", "value": "strongly reduced"}, {"measurement": "C. jejuni killing in splenocytes", "setting": "C. jejuni in splenocytes", "value": "enhanced"}, {"measurement": "C. jejuni induced expression of neutrophil marker myeloperoxidase (MPO)", "setting": "neutrophils (MPO)", "value": "strongly reduced"}, {"measurement": "growth of C. jejuni on plates", "setting": "C. jejuni [3]", "value": "normal growth"}]}
